Data: PMC6152638, “Anti-Inflammatory Phenolic Acid Esters from the Roots and Rhizomes of Notopterygium incisium and Their Permeability in the Human Caco-2 Monolayer Cell Model” (Molecules : A Journal of Synthetic Chemistry and Natural …, 2017)

Assay: Transport in the human intestinal Caco-2 cell monolayer model
Type: in vitro ADME
Settings: Caco-2, values as stated in text
Method: For confluence and differentiation, cells were seeded at a density of 1 × 10^5 cells/cm^2 into 12-well Transwell plates (insert diameter 12 mm, pore size 3.0 μm, membrane growth area 1.12 cm^2, Costar® #3402) and were allowed to grow for 21 days before the permeation experiment. On Day 21, the monolayers with TEER values >500 Ω·cm^2 were qualified for the transport experiment. The transport study was initiated by the careful removal of the culture medium from AP and BL side of the inserts. Caco-2 monolayers were rinsed twice with pre-warmed HBSS and were incubated by pre-warmed HBSS for 30 min at 37 °C. Stock solutions of test phenolic acid esters were prepared in DMSO and diluted to 50 µM with HBSS. […] Samples were collected from the inserts, then frozen, lyophilized, redissolved in MeOH, and injected into HPLC system for quantitative analysis.
The Papp values were calculated as the following equation:Papp = (dQ/dt) × (1/A) × (1/C0) (cm/s)(1) where dQ/dt is the rate of the appearance of the test compound on the receiver compartment (μmol/s), C0 is the initial test compound concentration on the donor compartment (μmol/mL), and A is the surface area of Caco-2 monolayer (cm^2).

Structure (SMILES): CC(C)NCC(O)COc1ccc(CC(N)=O)cc1 (stereo not shown) [atenolol, reference compound]
- Papp A→B at 90 min, 50 µM: 0.554 ×10⁻⁶ cm/s
